Data: EP4621409A1, “NOVEL ANTIVIRAL PEPTIDE” (Daehannupharm Co., Ltd., priority 2022, dated 2024)
Part of at least one peptide drawing is inferred or uncertain, most often the ends. Some compounds share one wording; it may come from a single statement. Some entries share one result that the patent states for a list of compounds. No end group written: not given here.

Assays:
[1] = Liposome leakage assay (6-carboxyfluorescein encapsulated liposomes); format: biochemical; details: peptide diluted to 500 nM mixed 1:1 with liposome solution (55 nm, POPC 20 µM); fluorescence for 20 minutes; FIGS. 3 to 25
dengue virus = assay: RNase digestion assay (micrococcal nuclease, RT-qPCR of viral RNA); format: biochemical; details: for Ct value: RT-qPCR of viral RNA after micrococcal nuclease treatment; for Δ Ct: increase in Ct value compared to negative control (N.C.); for destruction of the lipid membrane of the virus (viral RNA degraded by RNase): peptide solution 2 µM and 1 µM mixed 1:1 with virus, 37°C 1 hour, micrococcal nuclease

Sequence: LDVLSSIGQLIRDILDFI [SP-275, LDVLSSIGQLIRDILDFI]
- leakage of the fluorescent substance encapsulated in the liposome [1]: leaked out of the liposome

Sequence: LEEILEVIISLFKKLNLI [SP-145, LEEILEVIISLFKKLNLI]
- leakage of the fluorescent substance encapsulated in the liposome [1]: leaked out of the liposome

Sequence: LEKIYDIIGYIYQYLKLL [SP-276, LEKIYDIIGYIYQYLKLL]
- leakage of the fluorescent substance encapsulated in the liposome [1]: leaked out of the liposome

Sequence: LEQLMYLIEEFVKYLIRF [SP-098, LEQLMYLIEEFVKYLIRF]
- Ct value (dengue virus; peptide 500 nM): 25.21
- Δ Ct (dengue virus; peptide 500 nM): 1.16
- Ct value (dengue virus; peptide 1000 nM): 26.06
- Δ Ct (dengue virus; peptide 1000 nM): 2.01
- destruction of the lipid membrane of the virus (viral RNA degraded by RNase) (dengue virus): destroyed the lipid membrane of the virus

Sequence: LHIISYMGDIFKLIKEFW [SP-052, LHIISYMGDIFKLIKEFW]
- Ct value (dengue virus; peptide 500 nM): 24.37
- Δ Ct (dengue virus; peptide 500 nM): 0.84
- Ct value (dengue virus; peptide 1000 nM): 24.84
- Δ Ct (dengue virus; peptide 1000 nM): 1.30
- destruction of the lipid membrane of the virus (viral RNA degraded by RNase) (dengue virus): destroyed the lipid membrane of the virus

Sequence: LISFIDYISEIIANIIDR [SP-278, LISFIDYISEIIANIIDR]
- leakage of the fluorescent substance encapsulated in the liposome [1]: leaked out of the liposome

Sequence: LITMVLTMIQWWRDVIRE [SP-279, LITMVLTMIQWWRDVIRE]
- leakage of the fluorescent substance encapsulated in the liposome [1]: leaked out of the liposome

Sequence: LIWELIKQILKGISYIHD [SP-123, LIWELIKQILKGISYIHD]
- leakage of the fluorescent substance encapsulated in the liposome [1]: leaked out of the liposome

Sequence: LKDWLGFWLSLYQRFIEN [SP-168, LKDWLGFWLSLYQRFIEN]
- leakage of the fluorescent substance encapsulated in the liposome [1]: leaked out of the liposome

Sequence: LKEWLDYYNWLSRLIEFF [SP-091, LKEWLDYYNWLSRLIEFF]
- Ct value (dengue virus; peptide 500 nM): 25.34
- Δ Ct (dengue virus; peptide 500 nM): 1.80
- Ct value (dengue virus; peptide 1000 nM): 26.08
- Δ Ct (dengue virus; peptide 1000 nM): 2.54
- destruction of the lipid membrane of the virus (viral RNA degraded by RNase) (dengue virus): destroyed the lipid membrane of the virus

Sequence: LKIYYEIMDFIDFVLSKW [SP-232, LKIYYEIMDFIDFVLSKW]
- leakage of the fluorescent substance encapsulated in the liposome [1]: leaked out of the liposome

Sequence: LLEYIDLVYNILISILKK [SP-174, LLEYIDLVYNILISILKK]
- leakage of the fluorescent substance encapsulated in the liposome [1]: leaked out of the liposome

Sequence: LLKEILNLYLDLGTWLLK [SP-282, LLKEILNLYLDLGTWLLK]
- leakage of the fluorescent substance encapsulated in the liposome [1]: leaked out of the liposome

Sequence: LLSMFLVMIQWWRDIVRE [SP-033, LLSMFLVMIQWWRDIVRE]
- leakage of the fluorescent substance encapsulated in the liposome [1]: leaked out of the liposome

Sequence: LLVKILKLIINELSNVME [SP-146, LLVKILKLIINELSNVME]
- leakage of the fluorescent substance encapsulated in the liposome [1]: leaked out of the liposome

Sequence: LNDIVIIMKSIIYEWFDI [SP-261, LNDIVIIMKSIIYEWFDI]
- leakage of the fluorescent substance encapsulated in the liposome [1]: leaked out of the liposome

Sequence: LQELMKVLIDWINDVLVG [SP-284, LQELMKVLIDWINDVLVG]
- leakage of the fluorescent substance encapsulated in the liposome [1]: leaked out of the liposome

Sequence: LRLWEITARYVEGIVHLF (LRLWEIIARYVEGIVHLF; source 1..18: note = antiviral peptide candidate (or antiviral peptide)) [SP-140]
- leakage of the fluorescent substance encapsulated in the liposome [1]: leaked out of the liposome

Sequence: LSEWLRIIEFLLQGLKVY [SP-264, LSEWLRIIEFLLQGLKVY]
- leakage of the fluorescent substance encapsulated in the liposome [1]: leaked out of the liposome

Sequence: LSVAGWLDTIWDAIKRFF [SP-209, LSVAGWLDTIWDAIKRFF]
- leakage of the fluorescent substance encapsulated in the liposome [1]: leaked out of the liposome

Sequence: LTLLLLTMVQWWRDIIRE [SP-138, LTLLLLTMVQWWRDIIRE]
- leakage of the fluorescent substance encapsulated in the liposome [1]: leaked out of the liposome

Sequence: LVFFSKVLQYLIEELLEI [SP-277, LVFFSKVLQYLIEELLEI]
- leakage of the fluorescent substance encapsulated in the liposome [1]: leaked out of the liposome

Sequence: LVMIVATMIQWWRDVIRE [SP-280, LVMIVATMIQWWRDVIRE]
- leakage of the fluorescent substance encapsulated in the liposome [1]: leaked out of the liposome

Sequence: LWEAIETFIGEIIAIFYK [SP-192, LWEAIETFIGEIIAIFYK]
- leakage of the fluorescent substance encapsulated in the liposome [1]: leaked out of the liposome

Sequence: LWLSWEEGLQHFLKYLLD [SP-285, LWLSWEEGLQHFLKYLLD]
- leakage of the fluorescent substance encapsulated in the liposome [1]: leaked out of the liposome

Sequence: LWNDIMQFVEQFFWRLVE [SP-286, LWNDIMQFVEQFFWRLVE]
- leakage of the fluorescent substance encapsulated in the liposome [1]: leaked out of the liposome

Sequence: LYEFFQAYKTVWTEIWKI [SP-287, LYEFFQAYKTVWTEIWKI]
- leakage of the fluorescent substance encapsulated in the liposome [1]: leaked out of the liposome

Sequence: MEKILEIIRVILKLYEQW [SP-225, MEKILEIIRVILKLYEQW]
- leakage of the fluorescent substance encapsulated in the liposome [1]: leaked out of the liposome

Sequence: MLIERLIDAINSWVQLIE [SP-288, MLIERLIDAINSWVQLIE]
- leakage of the fluorescent substance encapsulated in the liposome [1]: leaked out of the liposome

Sequence: MLMEQFLDYIGKLLFKIF [SP-058, MLMEQFLDYIGKLLFKIF]
- leakage of the fluorescent substance encapsulated in the liposome [1]: leaked out of the liposome

Sequence: NFIDRVFTVISDLILKLL [SP-164, NFIDRVFTVISDLILKLL]
- leakage of the fluorescent substance encapsulated in the liposome [1]: leaked out of the liposome

Sequence: QDILSKLYLLLARVFEIW [SP-195, QDILSKLYLLLARVFEIW]
- leakage of the fluorescent substance encapsulated in the liposome [1]: leaked out of the liposome

Sequence: QDLCLRIFSSLVRILDLF [SP-005, QDLCLRIFSSLVRILDLF]
- Ct value (dengue virus; peptide 500 nM): 24.01
- Δ Ct (dengue virus; peptide 500 nM): 0.08
- Ct value (dengue virus; peptide 1000 nM): 24.04
- Δ Ct (dengue virus; peptide 1000 nM): 0.11
- destruction of the lipid membrane of the virus (viral RNA degraded by RNase) (dengue virus): destroyed the lipid membrane of the virus

Sequence: QLSILFTDWLEWFDKILA [SP-236, QLSILFTDWLEWFDKILA]
- leakage of the fluorescent substance encapsulated in the liposome [1]: leaked out of the liposome

Sequence: REVHEIWASLIEIALSLW [SP-291, REVHEIWASLIEIALSLW]
- leakage of the fluorescent substance encapsulated in the liposome [1]: leaked out of the liposome

Sequence: RVILGAIERFIGVLIEHF [SP-266, RVILGAIERFIGVLIEHF]
- leakage of the fluorescent substance encapsulated in the liposome [1]: leaked out of the liposome

Sequence: SFIRKGIEAWFTLLMELI [SP-196, SFIRKGIEAWFTLLMELI]
- leakage of the fluorescent substance encapsulated in the liposome [1]: leaked out of the liposome

Sequence: SLLTLILEQFDDLLVKIL [SP-281, SLLTLILEQFDDLLVKIL]
- leakage of the fluorescent substance encapsulated in the liposome [1]: leaked out of the liposome

Sequence: TDIIDIIDQIVILLTKFI [SP-293, TDIIDIIDQIVILLTKFI]
- leakage of the fluorescent substance encapsulated in the liposome [1]: leaked out of the liposome

Sequence: TIWLGFIGFMDDYIKVFK [SP-258, TIWLGFIGFMDDYIKVFK]
- leakage of the fluorescent substance encapsulated in the liposome [1]: leaked out of the liposome

Sequence: TLTDWKTWISFWKTLIDW [SP-294, TLTDWKTWISFWKTLIDW]
- leakage of the fluorescent substance encapsulated in the liposome [1]: leaked out of the liposome

Sequence: TRIVDWYDLVYGLLDGWW [SP-121, TRIVDWYDLVYGLLDGWW]
- leakage of the fluorescent substance encapsulated in the liposome [1]: leaked out of the liposome

Sequence: TSVQFWYEFIDYIMRVIE [SP-035, TSVQFWYEFIDYIMRVIE]
- leakage of the fluorescent substance encapsulated in the liposome [1]: leaked out of the liposome

Sequence: TTWWNILERIDHKLFMWI [SP-263, TTWWNILERIDHKLFMWI]
- leakage of the fluorescent substance encapsulated in the liposome [1]: leaked out of the liposome

Sequence: VAFGIIGFIDDFIKVILK [SP-250, VAFGIIGFIDDFIKVILK]
- leakage of the fluorescent substance encapsulated in the liposome [1]: leaked out of the liposome

Sequence: VFWYFWEDLTGIAKGIIK [SP-269, VFWYFWEDLTGIAKGIIK]
- leakage of the fluorescent substance encapsulated in the liposome [1]: leaked out of the liposome

Sequence: VLVGMIIKWFDWLYEMGK [SP-118, VLVGMIIKWFDWLYEMGK]
- leakage of the fluorescent substance encapsulated in the liposome [1]: leaked out of the liposome

Sequence: VLYKEVLKTIIDLIENII [SP-252, VLYKEVLKTIIDLIENII]
- leakage of the fluorescent substance encapsulated in the liposome [1]: leaked out of the liposome

Sequence: VTIYEMVLKSLLEIFKIL [SP-256, VTIYEMVLKSLLEIFKIL]
- leakage of the fluorescent substance encapsulated in the liposome [1]: leaked out of the liposome

Sequence: VWDEFLVLLSKLMEIVNN [SP-224, VWDEFLVLLSKLMEIVNN]
- leakage of the fluorescent substance encapsulated in the liposome [1]: leaked out of the liposome

Sequence: WDCVQDIWEYIFRTAMKI [SP-185, WDCVQDIWEYIFRTAMKI]
- leakage of the fluorescent substance encapsulated in the liposome [1]: leaked out of the liposome

Sequence: WEKLMLLIIDLFKFLDQY [SP-283, WEKLMLLIIDLFKFLDQY]
- leakage of the fluorescent substance encapsulated in the liposome [1]: leaked out of the liposome

Sequence: WFEALLGYISAVIEYFEK [SP-142, WFEALLGYISAVIEYFEK]
- leakage of the fluorescent substance encapsulated in the liposome [1]: leaked out of the liposome

Sequence: WFEAVLGYISAVVELFRE [SP-295, WFEAVLGYISAVVELFRE]
- leakage of the fluorescent substance encapsulated in the liposome [1]: leaked out of the liposome

Sequence: WIESILELIKKHLLSLWN [SP-296, WIESILELIKKHLLSLWN]
- leakage of the fluorescent substance encapsulated in the liposome [1]: leaked out of the liposome

Sequence: WKEWWKVFYTIVDYINQI [SP-132, WKEWWKVFYTIVDYINQI]
- leakage of the fluorescent substance encapsulated in the liposome [1]: leaked out of the liposome

Sequence: WLDNIIDLVKKYILALWN [SP-141, WLDNIIDLVKKYILALWN]
- leakage of the fluorescent substance encapsulated in the liposome [1]: leaked out of the liposome

Sequence: WLLLFSEWLGNLQKIFDE [SP-265, WLLLFSEWLGNLQKIFDE]
- leakage of the fluorescent substance encapsulated in the liposome [1]: leaked out of the liposome

Sequence: WLSGIYEFFLRYKNIWVE [SP-231, WLSGIYEFFLRYKNIWVE]
- leakage of the fluorescent substance encapsulated in the liposome [1]: leaked out of the liposome

Sequence: WRGMLIKILSFIEGYIDF [SP-167, WRGMLIKILSFIEGYIDF]
- leakage of the fluorescent substance encapsulated in the liposome [1]: leaked out of the liposome

Sequence: YEIIKWTSFLLEYLTEII [SP-298, YEIIKWTSFLLEYLTEII]
- leakage of the fluorescent substance encapsulated in the liposome [1]: leaked out of the liposome

Sequence: YGELNIFWLQILEIIRRW [SP-299, YGELNIFWLQILEIIRRW]
- leakage of the fluorescent substance encapsulated in the liposome [1]: leaked out of the liposome

Sequence: YIYLILKFIQDIYNDIYR [SP-112, YIYLILKFIQDIYNDIYR]
- leakage of the fluorescent substance encapsulated in the liposome [1]: leaked out of the liposome

Sequence: YKWFAFFKDVTDFISHLF [SP-136, YKWFAFFKDVTDFISHLF]
- leakage of the fluorescent substance encapsulated in the liposome [1]: leaked out of the liposome
